Laboratory results as given in paper doi:10.1101/2021.10.04.463081.
Like-named read-outs stand apart in the source and are kept apart here. Results are given in words; binding and its absence hold for the method and conditions named. In cells and extracts the contact can be indirect. Some results given as binding are weak or reduced against the parent protein; the word gives no strength. For some assays here: Sequences can lack the tags named with a protein.

Protein sequences, listed by entry. Tags and fused reporters are not part of them. Lines headed by an entry give the natural chain unless they say otherwise; changes in a name come on top.
UniProt O75376, whole entry: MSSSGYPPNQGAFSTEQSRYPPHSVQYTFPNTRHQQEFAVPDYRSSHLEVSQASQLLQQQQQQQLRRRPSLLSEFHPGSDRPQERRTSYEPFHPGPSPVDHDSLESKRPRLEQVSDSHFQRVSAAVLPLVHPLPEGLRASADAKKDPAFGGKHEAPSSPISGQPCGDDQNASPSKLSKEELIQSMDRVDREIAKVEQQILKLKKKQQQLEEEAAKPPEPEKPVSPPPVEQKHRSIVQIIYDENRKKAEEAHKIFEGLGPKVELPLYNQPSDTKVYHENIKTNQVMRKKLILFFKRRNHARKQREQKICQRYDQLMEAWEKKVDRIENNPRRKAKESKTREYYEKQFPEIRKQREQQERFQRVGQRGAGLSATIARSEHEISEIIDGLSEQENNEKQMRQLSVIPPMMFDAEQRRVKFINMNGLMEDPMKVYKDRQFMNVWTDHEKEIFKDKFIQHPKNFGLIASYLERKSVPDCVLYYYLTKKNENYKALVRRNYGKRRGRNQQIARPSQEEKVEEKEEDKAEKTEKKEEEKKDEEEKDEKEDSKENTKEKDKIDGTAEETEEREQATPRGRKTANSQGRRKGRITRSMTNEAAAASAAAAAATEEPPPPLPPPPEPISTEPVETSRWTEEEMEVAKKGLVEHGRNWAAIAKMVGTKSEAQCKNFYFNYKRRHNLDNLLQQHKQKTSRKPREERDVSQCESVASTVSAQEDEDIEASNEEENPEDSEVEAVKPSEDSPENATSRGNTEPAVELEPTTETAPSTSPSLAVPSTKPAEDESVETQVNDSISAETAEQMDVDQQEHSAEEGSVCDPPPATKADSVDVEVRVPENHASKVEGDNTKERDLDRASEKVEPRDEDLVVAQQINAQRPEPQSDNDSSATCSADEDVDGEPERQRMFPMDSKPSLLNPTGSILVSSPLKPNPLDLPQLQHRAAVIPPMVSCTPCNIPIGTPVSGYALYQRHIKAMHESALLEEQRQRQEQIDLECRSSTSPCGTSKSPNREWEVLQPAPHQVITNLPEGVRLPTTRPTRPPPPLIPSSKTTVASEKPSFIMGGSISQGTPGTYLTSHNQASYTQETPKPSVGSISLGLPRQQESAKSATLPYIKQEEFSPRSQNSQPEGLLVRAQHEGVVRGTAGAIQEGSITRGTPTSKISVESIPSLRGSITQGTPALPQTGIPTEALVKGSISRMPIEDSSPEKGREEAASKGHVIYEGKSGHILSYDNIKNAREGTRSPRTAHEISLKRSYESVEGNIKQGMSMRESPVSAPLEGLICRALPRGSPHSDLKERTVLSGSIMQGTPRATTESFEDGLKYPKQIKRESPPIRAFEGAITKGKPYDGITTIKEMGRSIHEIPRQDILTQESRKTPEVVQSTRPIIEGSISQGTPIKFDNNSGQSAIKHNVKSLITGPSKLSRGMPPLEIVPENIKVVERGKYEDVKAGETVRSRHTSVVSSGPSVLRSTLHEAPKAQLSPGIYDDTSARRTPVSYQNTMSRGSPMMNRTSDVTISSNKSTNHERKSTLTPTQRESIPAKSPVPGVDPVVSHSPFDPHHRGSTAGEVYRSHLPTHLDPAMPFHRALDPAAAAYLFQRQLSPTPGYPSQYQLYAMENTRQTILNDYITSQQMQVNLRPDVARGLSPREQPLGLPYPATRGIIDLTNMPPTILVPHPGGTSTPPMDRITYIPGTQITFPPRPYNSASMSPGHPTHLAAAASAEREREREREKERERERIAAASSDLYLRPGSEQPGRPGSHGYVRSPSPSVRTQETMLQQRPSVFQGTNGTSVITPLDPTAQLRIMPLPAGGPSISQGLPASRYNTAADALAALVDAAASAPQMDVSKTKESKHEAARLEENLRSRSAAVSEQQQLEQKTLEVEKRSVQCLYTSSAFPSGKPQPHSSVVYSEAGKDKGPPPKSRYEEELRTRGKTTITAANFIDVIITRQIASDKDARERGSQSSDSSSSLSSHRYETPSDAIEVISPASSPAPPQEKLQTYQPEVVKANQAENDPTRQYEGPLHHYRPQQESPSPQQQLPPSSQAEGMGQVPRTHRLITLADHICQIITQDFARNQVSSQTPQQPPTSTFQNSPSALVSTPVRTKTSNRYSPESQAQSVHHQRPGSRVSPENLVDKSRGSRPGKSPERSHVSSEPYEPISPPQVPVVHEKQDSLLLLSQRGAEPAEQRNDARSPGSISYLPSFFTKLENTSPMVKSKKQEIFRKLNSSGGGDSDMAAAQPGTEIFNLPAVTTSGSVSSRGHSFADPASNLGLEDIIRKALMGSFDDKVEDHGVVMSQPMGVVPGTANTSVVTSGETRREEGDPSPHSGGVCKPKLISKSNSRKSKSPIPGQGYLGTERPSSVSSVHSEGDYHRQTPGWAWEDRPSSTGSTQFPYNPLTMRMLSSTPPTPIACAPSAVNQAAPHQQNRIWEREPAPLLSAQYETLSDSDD

Tests used:
Assay in all cases: co-IP
HA-HOXB13-G84E = HA-HOXB13-G84E (UniProt Q92826)
HA-HOXB13-WT = HA-HOXB13-WT (UniProt Q92826)
Flag-tagged HDAC1 = Flag-tagged HDAC1 (UniProt Q13547)
Flag-tagged HDAC3 = Flag-tagged HDAC3 (UniProt O15379)
Flag-HOXB13 FL = Flag-HOXB13 FL (UniProt Q92826)
[1] = molecular target: Flag-HOXB13 ΔHOX (aa210-270) (UniProt Q92826)
[2] = molecular target: Flag-HOXB13 ΔMEIS (aa70-150) (UniProt Q92826)
[3] = molecular target: HOXB13 (co-expressed, tag not stated) (UniProt Q92826)
HOXB13 aa150-280 = HOXB13 aa150-280 (UniProt Q92826)
HOXB13 aa210-284 = HOXB13 aa210-284 (UniProt Q92826)
HOXB13 aa70-284 = HOXB13 aa70-284 (UniProt Q92826)
HA-HDAC3 FL (aa1-428) = HA-HDAC3 FL (aa1-428) (UniProt O15379)
HA-HDAC3 aa1-120 = HA-HDAC3 aa1-120 (UniProt O15379)
HA-HDAC3 aa1-180 = HA-HDAC3 aa1-180 (UniProt O15379)
HA-HDAC3 aa1-316 = HA-HDAC3 aa1-316 (UniProt O15379)
HA-HDAC3 aa120-428 = HA-HDAC3 aa120-428 (UniProt O15379)
[4] = molecular target: HOXB13 (human (endogenous in LNCaP and PC-3)) (UniProt Q92826)
[5] = molecular target: HOXB13 (human (endogenous in LNCaP and PC-3)) (UniProt Q92826); remark: listed apart in the source
V5-NCoR1 FL, O75376 = conditions: remark: other sources report otherwise

HDAC1 (from UniProt Q13547 1-482) (enzyme)
binding (HA-HOXB13-G84E): binds weakly | binding (HA-HOXB13-WT): binds

HOXB13 (from UniProt Q92826 1-284)
binding (Flag-tagged HDAC1): binds | binding (Flag-tagged HDAC3): binds

HDAC3 (co-expressed, tag not stated) (from UniProt O15379 1-428) (enzyme)
binding (Flag-HOXB13 FL): binds | binding [1]: binds | binding [2]: no binding | binding [3]: binds | binding (HOXB13 aa150-280): binds weakly | binding (HOXB13 aa210-284): binds weakly | binding (HOXB13 aa70-284): binds

androgen receptor (AR) (from UniProt P10275 1-920)
binding (HA-HOXB13-G84E): binds | binding (HA-HOXB13-WT): binds

HOXB13 (co-expressed, tag not stated) (from UniProt Q92826 1-284)
binding (HA-HDAC3 FL (aa1-428)): binds | binding (HA-HDAC3 aa1-120): no binding | binding (HA-HDAC3 aa1-180): no binding | binding (HA-HDAC3 aa1-316): no binding | binding (HA-HDAC3 aa120-428): binds

HDAC3 (from UniProt O15379 1-428) (enzyme)
binding [4]: binds | binding (HA-HOXB13-G84E): binds weakly | binding (HA-HOXB13-WT): binds | binding [5]: binds

B1: HDAC3 (co-expressed, tag not stated), O15379 1-428 (enzyme)
chain: MAKTVAYFYDPDVGNFHYGAGHPMKPHRLALTHSLVLHYGLYKKMIVFKPYQASQHDMCRFHSEDYIDFLQRVSPTNMQGFTKSLNAFNVGDDCPVFPGLFEFCSRYTGASLQGATQLNNKICDIAINWAGGLHHAKKFEASGFCYVNDIVIGILELLKYHPRVLYIDIDIHHGDGVQEAFYLTDRVMTVSFHKYGNYFFPGTGDMYEVGAESGRYYCLNVPLRDGIDDQSYKHLFQPVINQVVDFYQPTCIVLQCGADSLGCDRLGCFNLSIRGHGECVEYVKSFNIPLLVLGGGGYTVRNVARCWTYETSLLVEEAISEELPYSEYFEYFAPDFTLHPDVSTRIENQNSRQYLDQIRQTIFENLKMLNHAPSVQIHDVPADLLTYDRTDEADAEERGPEENYSRPEAPNEFYDGDHDNDKESDVEI
binding (V5-NCoR1 FL, O75376): binds
